# PubChem BioAssay AID652259, Drosophila RNAi Screening Center | 2013
# Aim: 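Genome-wide hunt for genes that control Wingless pathway activity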 (primary screen)
# System: Drosophila clone 8 imaginal disc epithelial cells
# Reagent: long dsRNA against Drosophila genes
# Conditions: pathway stimulated by co-transfected Wingless expression plasmid
# Measurement: 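Firefly luciferase from a tcf-site Wingless reporter, measured alongside co-transfected Renilla luciferase that tracks transfection; pathway stimulated by a Wingless plasmid; the firefly-to-Renilla ratio is not deposited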
# Reading the numbers: firefly reporter light: higher = more Wg reporter light, before normalisation; Renilla control light: higher = more transfected or surviving cells
# Rule for the call: 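a knock-down is a candidate when at least two out of four statistical tests show it departing from its plate mean; one test alone signals a weak candidate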
# Calls: active = candidate regulator (raises or lowers reporter); inactive = not a candidate
# In all, the deposit lists about 22,000 reagents; shown is a random part of those with a known target gene and a result. Over the whole deposit, 233 (1.1%) got an active call. 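Light values are raw, unnormalised plate reads; the ratio scores behind the reporter calls were not deposited.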 A plus sign joins genes that one reagent is predicted to hit. Not stated in the record: the amount of reagent, the time to read-out, the dose of the treatment.
Target gene,amplicon,"reporter change call, replicate 1","firefly reporter light, replicate 1","firefly reporter light, replicate 2","Renilla control light, replicate 1","Renilla control light, replicate 2",outcome
GNBP2,DRSC10404,,4939,,1864,,inactive
Prx6c + CG12896 + Prx6b,DRSC06148,,2720,7124,694,1611,inactive
Nos,DRSC03381,,9035,,3289,,inactive
Nop56,DRSC14699,,2275,3913,743,1062,inactive
SCOT,DRSC08186,,14256,,3994,,inactive
Ugt303A1,DRSC15641,,16824,,4360,,inactive
Sik2,DRSC18522,,16401,,14843,,inactive
CG9795,DRSC12336,,11594,,3002,,inactive
Tg,DRSC03047,,2267,6662,624,3339,inactive
CstF64,DRSC16616,,15313,,4842,,inactive
CG18754,DRSC15387,,13357,,5821,,inactive
alpha-Est4,DRSC12616,,11808,,3857,,inactive
CG14354,DRSC14817,,19200,,14480,,inactive
ScpX,DRSC03430,,11805,,2312,,inactive
Adar,DRSC17725,,14752,,13325,,inactive
CG3544,DRSC00613,,8058,,3616,,inactive
Alp6,DRSC06710,,9145,,2928,,inactive
XRCC1,DRSC18729,,2311,7019,888,2304,inactive
Lim1,DRSC17752,,3142,6096,1602,2875,inactive
Lim1,DRSC18677,,35264,,22500,,inactive
CG12056,DRSC17796,,1515,6364,612,1947,inactive
fry,DRSC08993,,4732,,2277,,inactive
fry,DRSC10172,,5426,,2294,,inactive
fry,DRSC10709,,5927,,2384,,inactive
fry,DRSC10712,,6858,,1457,,inactive
Phf5a,DRSC03261,,3604,8209,887,1211,inactive
Alh,DRSC12447,,3223,,404,,inactive
Alh,DRSC12487,Wg reporter activity raised,30736,,3109,,inactive
Alh,DRSC12488,,24221,,3360,,inactive
msi,DRSC17003,,23943,,13876,,inactive
akirin,DRSC11000,Wg reporter activity lowered,2568,,2618,,active
CG7742,DRSC03066,,5336,,2787,,inactive
Acox57D-d,DRSC04561,,10992,,3377,,inactive
UGP + PGRP-LF,DRSC10418,,6858,,3520,,inactive
CG6638,DRSC10680,,965,6016,864,3073,inactive
CG11349,DRSC08179,,1094,6828,896,2817,inactive
CG31248,DRSC22722,,5.51e5,5.18e5,1.65e5,1.34e5,inactive
Plzf,DRSC02994,,14950,,2438,,inactive
CG15147,DRSC02447,,3140,8534,1174,4427,inactive
CG15147,DRSC02448,,2509,8364,1190,4161,inactive
HP4,DRSC10958,,5366,,2147,,inactive
CG11145,DRSC06049,,3811,9529,1059,1936,inactive
Sting,DRSC06615,,3531,11576,946,4741,inactive
MED14,DRSC08235,,9360,,1960,,inactive
TwdlS,DRSC14737,,5312,,2324,,inactive
Vajk1,DRSC01882,,6224,8100,1728,4647,inactive
CG13323,DRSC06360,,4820,,1689,,inactive
ORY,DRSC22883,,8.70e5,9.37e5,3.95e5,4.35e5,inactive
CG13324,DRSC06361,,6368,,1716,,inactive
CG17826,DRSC10289,,12145,,3300,,inactive
CR41501,DRSC07785,,19927,,10131,,inactive
Archease,DRSC16025,,32210,,5715,,inactive
CG9993,DRSC04599,,2503,5546,666,2029,inactive
CG32100,DRSC09725,,4186,,1761,,inactive
CG32100,DRSC10331,,5125,,1772,,inactive
CG34251,DRSC09498,,3573,,1004,,inactive
CG34251,DRSC09500,,2934,,1368,,inactive
spri,DRSC17846,,13649,,5971,,inactive
spri,DRSC17984,,16501,,6291,,inactive
spri,DRSC17985,,21397,,10105,,inactive
spri,DRSC17986,,29749,,13458,,inactive
spri,DRSC17988,,18821,,9453,,inactive
spri,DRSC17989,,14921,,8096,,inactive
spri,DRSC22927,,4.44e5,4.62e5,1.75e5,1.63e5,inactive
mkg-p,DRSC10777,,3479,,1766,,inactive
CG7016,DRSC16174,,21976,,21031,,inactive
QC,DRSC09736,,8836,,3754,,inactive
Ir7d,DRSC18010,,28432,,14148,,inactive
CG5116,DRSC15720,,3931,,1328,,inactive
Stacl,DRSC05553,Wg reporter activity raised,36683,,30274,,inactive
Stacl,DRSC06260,,9085,,2662,,inactive
Stacl,DRSC06261,,5595,,2071,,inactive
Stacl,DRSC06777,,6786,,2163,,inactive
Stacl,DRSC07091,Wg reporter activity raised,24052,,4915,,active

9 of these entries, reformatted.
{"Target gene": "spri", "amplicon": "DRSC22927", "firefly reporter light, replicate 1": 4.44e5, "firefly reporter light, replicate 2": 4.62e5, "Renilla control light, replicate 1": 1.75e5, "Renilla control light, replicate 2": 1.63e5, "outcome": "inactive"}
{"Target gene": "mkg-p", "amplicon": "DRSC10777", "firefly reporter light, replicate 1": 3479, "Renilla control light, replicate 1": 1766, "outcome": "inactive"}
{"Target gene": "CG7016", "amplicon": "DRSC16174", "firefly reporter light, replicate 1": 21976, "Renilla control light, replicate 1": 21031, "outcome": "inactive"}
{"Target gene": "QC", "amplicon": "DRSC09736", "firefly reporter light, replicate 1": 8836, "Renilla control light, replicate 1": 3754, "outcome": "inactive"}
{"Target gene": "Ir7d", "amplicon": "DRSC18010", "firefly reporter light, replicate 1": 28432, "Renilla control light, replicate 1": 14148, "outcome": "inactive"}
{"Target gene": "CG5116", "amplicon": "DRSC15720", "firefly reporter light, replicate 1": 3931, "Renilla control light, replicate 1": 1328, "outcome": "inactive"}
{"Target gene": "Stacl", "amplicon": "DRSC05553", "reporter change call, replicate 1": "Wg reporter activity raised", "firefly reporter light, replicate 1": 36683, "Renilla control light, replicate 1": 30274, "outcome": "inactive"}
{"Target gene": "Stacl", "amplicon": "DRSC06260", "firefly reporter light, replicate 1": 9085, "Renilla control light, replicate 1": 2662, "outcome": "inactive"}
{"Target gene": "Stacl", "amplicon": "DRSC06261", "firefly reporter light, replicate 1": 5595, "Renilla control light, replicate 1": 2071, "outcome": "inactive"}
